# Measurements as given in the supplement of paper PMC3334620.
# In all, about 33,000 sequences were measured (“E-score (-0.5 to 0.5)”: median about -0.015, highest 2% from about 0.3 on). This is one part of the list.
# Biological target: T1, Abf1 (UniProt P14164)
# T1 sequence: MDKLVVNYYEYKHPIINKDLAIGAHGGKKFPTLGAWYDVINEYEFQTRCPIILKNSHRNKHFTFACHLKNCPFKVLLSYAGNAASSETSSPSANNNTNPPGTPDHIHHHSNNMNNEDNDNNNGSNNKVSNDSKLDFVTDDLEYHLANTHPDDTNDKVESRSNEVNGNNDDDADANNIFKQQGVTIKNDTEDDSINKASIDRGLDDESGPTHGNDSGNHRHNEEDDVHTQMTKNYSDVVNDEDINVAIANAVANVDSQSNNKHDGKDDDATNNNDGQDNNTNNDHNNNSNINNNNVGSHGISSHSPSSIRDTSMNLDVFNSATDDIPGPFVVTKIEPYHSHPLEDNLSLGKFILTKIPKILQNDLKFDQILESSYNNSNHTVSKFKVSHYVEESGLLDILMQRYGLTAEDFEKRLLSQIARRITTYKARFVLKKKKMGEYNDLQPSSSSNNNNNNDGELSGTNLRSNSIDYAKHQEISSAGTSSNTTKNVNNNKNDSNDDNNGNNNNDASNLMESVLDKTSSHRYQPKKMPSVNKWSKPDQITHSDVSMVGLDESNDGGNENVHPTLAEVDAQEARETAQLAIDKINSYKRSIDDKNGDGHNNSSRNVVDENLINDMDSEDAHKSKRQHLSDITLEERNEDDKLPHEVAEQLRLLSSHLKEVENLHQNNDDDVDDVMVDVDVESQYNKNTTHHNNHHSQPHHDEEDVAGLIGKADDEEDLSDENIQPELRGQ
# Experiment: PBM E-score (8-mer binding enrichment) (E-score (-0.5 to 0.5)); higher = stronger / more preferred TF binding
# Conditions: protein concentration: 200 nM; construct: GST-full length
# In short: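 Yeast transcription factors, full-length or as DNA-binding domains, were expressed with a GST tag using PURExpress in vitro transcription/translation. At about 100-200 nM they were applied to universal all-10-mer Agilent arrays, double-stranded by primer extension on fresh or once-stripped slides. Fluorescent anti-GST detected bound protein, and masliner normalised the scans. E-scores for ungapped eight-base words, pooled with reverse complements, came from the Universal PBM Analysis Suite.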
row,Sequence,PBM E-score
1,GCTTGGCA,-0.098
2,TAAATATA,0.227
3,ACTGGCCT,-0.132
4,ACGGCTGG,0.0869
5,CGCTGATA,-0.0858
6,CAGAGTAG,-0.205
7,ATGACATG,0.358
8,AGGTACGG,-0.0413
9,ACAGGCGG,-0.0124
10,GCCCACAC,-0.116
11,AATAGGGG,0.00756
12,CGCAGGAG,-0.093
13,ACGGTAGT,0.234
14,AAGGTGTC,0.0731
15,CTATGCTC,-0.192
16,ATTAGGGA,-0.0627
17,AAACGCTG,-0.124
18,AGAAAGAT,0.15
19,CTTCCTTC,-0.315
20,CATACTTC,0.123
21,GTAACCAC,-0.138
22,TGCGGCAA,-0.0355

row,Sequence,PBM E-score
1,ATATGTAG,-0.00956
2,AAAACACG,0.0959
3,CCAGCGGG,-0.213
4,GCTGGCTA,-0.288
5,AGCTTAAC,-0.101
6,AGTTTTCC,-0.0477
7,GCAGTAAA,-0.0961
8,ATGCAGAA,0.0271
9,CGAATACA,0.00511
10,CCTTCTAA,-0.103
11,ATATCATG,0.297
12,ATTATTAC,0.112
13,CATGAATG,0.0163
14,ATGTGCAG,-0.316
15,CCTAGGGC,-0.229
16,CGTGGGCC,-0.0349
17,AGCAAAAT,0.101
18,CTGGACGA,0.211
19,CGGAACAA,0.0683
20,AAAACGGC,0.101
21,CGGTCTTA,-0.228
22,AATGTTAC,0.0858

row,Sequence,PBM E-score
1,AGTCGGTC,-0.242
2,GTCACGAA,0.402
3,CGGACAAA,-0.0756
4,CACATACC,-0.0269
5,GGTGGCGA,0.0562
6,GAACTTAC,0.0577
7,AGCTTCTC,-0.11
8,ATACCTGG,-0.0475
9,CGATGTGA,0.181
10,CGAAGACG,-0.0838
11,AACGTTGT,0.0987
12,TCCAAACA,-0.0574
13,GACAAGAC,0.134
14,CGCTTTTC,-0.0402
15,CAGTGAGA,0.0837
16,TAAGATAA,0.00285
17,CTGTTGTC,-0.062
18,AATCAGCC,-0.191
19,TTCTTCAA,0.0319
20,CTCTGGCA,-0.104
21,CTTTTACC,-0.0639
22,GTTTATGA,0.11

row,Sequence,PBM E-score
1,CGTCTTAA,0.232
2,AGGGTACA,0.0602
3,ACAGGGTC,-0.361
4,ATCTTGAA,0.163
5,AGTGCCGA,0.00668
6,GAGATAGC,0.0834
7,GAACTTCA,-0.174
8,GGTGTCAA,-0.252
9,CGCCTCAC,-0.00998
10,GCTAAAAC,-0.0678
11,CCCGCTAG,-0.157
12,CAGAGTTC,-0.228
13,GGTACAAC,0.153
14,CTCTGCGC,0.00942
15,AGTATTGC,-0.131
16,AGGACGGG,-0.115
17,TAGCGTAA,-0.0339
18,CTAGCCTA,-0.0519
19,CGCCCTTC,-0.295
20,CCTGACGA,0.214

# Taken from above.
# In PBM E-score, TAGCGTAA reads -0.0339
# In PBM E-score, AGGGTACA reads 0.0602
# In PBM E-score, CGCCTCAC reads -0.00998
# In PBM E-score, CGTCTTAA reads 0.232
# In PBM E-score, GCTAAAAC reads -0.0678
# In PBM E-score, ATCTTGAA reads 0.163
